Some entries of the source have several records that differ or are many. This is not the full list of results. There may be further records. The records of an entry do not match, cause unknown; they may come from other doses, times, organisms or constructs than stated.
Assay: Microsome stability, human liver microsomes

- Microsome Stability Human t1/2: > 100 min and 111 min
SMILES: O=C1CC(=O)C(CC(=O)Nc2ccc3ncnc(Nc4cccc(Br)c4)c3c2)C1 (stereo not shown)

— patent US9977024B2, “Targeted covalent probes and inhibitors of proteins containing redox-sensitive cysteines” (THE SCRIPPS RESEARCH INSTITUTE, priority 2012, dated 2018)
